# Measurements taken from PubChem BioAssay AID493014 (National Center for Advancing Translational Sciences (NCATS), 2011).
# The other results are listed elsewhere or left out. These are further read-outs of the screen, such as a control signal, another cell line or another target. No call is given for them. Most of these compounds were active or inconclusive in the main read-out, so they are no random draw. Potencies come from curve fits of mixed quality, noted in brackets.
# Test: qHTS Assay to Find Inhibitors of Chronic Active B-Cell Receptor Signaling
# Conditions: ABC-DLBCL IkBa-CBG/CBR reporter, luminescence ratio (green luciferase fused to IkBa over red control in TMD8 lymphoma cells), 4 h
# Outline: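 TMD8 ABC-DLBCL cells carrying doxycycline-inducible green luciferase fused to IkappaBalpha plus unfused red luciferase were exposed to compounds (up to 46 uM) for 4 hrs at 37C. Activity came from the overlap-corrected green/red luminescence ratio.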
# [1] = measured here: CBR red luminescence, cell number
# [2] = measured here: IkBa-CBG green luminescence
Compound,AC50 [1],AC50 [2]
COC1CCCCC1Nc1cccc(SC)c1 (centres undefined),"29.1 µM [rising, single point]",–
O=C(Nc1nc2cc3c(cc2s1)OCCO3)c1cccs1,"2.24 µM [falling, full curve]",–
CCCCCCCNC(=O)CC(NS(=O)(=O)c1ccc(NC(C)=O)cc1)C(C)C (centres undefined),"9.2 µM [rising, partial curve]",–
CN1CCN2c3ccccc3Cc3ccccc3C2C1 (centres undefined),–,"31.6 µM [rising, partial curve, poor fit]"
CC(C)c1[nH]nc2c1C(c1cccs1)C(C#N)=C(N)O2 (centres undefined),"4.11 µM [falling, full curve]","23.1 µM [rising, partial curve, poor fit]"
Cc1ccc(NC(=O)NC2C(NC(=O)Nc3ccc(C)cc3)N(C)C(=O)N2C)cc1 (centres undefined),"9.2 µM [rising, partial curve]",–
CCOC(=O)N1CCC(=NNC(=O)Cn2ccc(C(F)(F)F)n2)CC1,"35.5 µM [falling, single point]",–
COc1ccc(OCC(=O)Nc2cc(OC)ccc2N2CCCCC2)cc1,"1 µM [falling, full curve]",–
O=C(NCCCN1CCOCC1)[C@@H]1CSC2c3ccccc3C(=O)N21 (some centres undefined),"2.31 µM [falling, single point]",–
Cc1noc(NS(=O)(=O)c2ccc(NC(=O)C34CC5CC(C3)CC(n3cnc(Cl)n3)(C5)C4)cc2)c1C,"1.64 µM [falling, partial curve, poor fit]",–
COC(=O)C1=C(C(=O)OC)[C@@H]2Nc3ccccc3[C@@]23C[C@@H](C(=O)OC)N(C(C)=O)C3=N1,"15.8 µM [rising, single point]",–
COc1cc(SC)ccc1C(=O)OCc1nc2ccsc2c(=O)[nH]1,–,"14.6 µM [rising, partial curve, poor fit]"
CC1CCCCN1S(=O)(=O)c1cnc(Cl)c(Br)c1 (centres undefined),"13 µM [falling, partial curve]",–
CCS(=O)(=O)n1nc(-c2ccc(C)cc2)nc1N,"16.4 µM [rising, single point]",–
CCc1nnc(NS(=O)(=O)c2ccc(NC(=O)/C=C/c3ccc(OC)cc3OC)cc2)s1,"2.31 µM [falling, full curve]",–
CC(=O)Nc1ccc(S(=O)(=O)N/N=C/c2ccc(C)s2)cc1,"2.91 µM [rising, full curve]",–
O=C(Nc1nnc(C(F)(F)F)s1)c1c(F)cccc1F,"14.1 µM [falling, single point]",–
CC(C)(C)[C@H]1C=C(C(=O)N2CCN(Cc3ccccc3)CC2)O[C@@H](OCCCCO)C1,"20 µM [falling, single point]",–
COc1cccc(NC(=O)Cc2nnc(SCC(=O)c3ccccc3)n2C)c1,"29.1 µM [falling, single point]",–
CC(C)NC(=O)C(=O)c1cn(C)c2ccccc12,"10 µM [falling, partial curve, poor fit]",–

# Some of the entries above in another layout:
Compound	AC50 [1]	AC50 [2]
CCS(=O)(=O)n1nc(-c2ccc(C)cc2)nc1N	16.4 µM [rising, single point]	–
CCc1nnc(NS(=O)(=O)c2ccc(NC(=O)/C=C/c3ccc(OC)cc3OC)cc2)s1	2.31 µM [falling, full curve]	–

# More results follow.

Compound,AC50 [1],AC50 [2]
COC(CNC(=O)c1cc(C)nn1-c1ccccc1)OC,"29.1 µM [falling, single point]",–
O=C(NNC(=O)c1ccccc1Cl)c1ccc2c(c1)OCCO2,"20.6 µM [falling, single point]",–
O=C(O)CCC(=O)c1ccc(-c2ccccc2)cc1,"11.2 µM [falling, single point]","0.355 µM [rising, partial curve, poor fit]"
CNc1sc(C(=O)c2cccs2)c(N)c1-c1nc2ccccc2s1,"17.8 µM [falling, single point]","22.4 µM [falling, single point]"
CCCCN(CC)C(=O)Cn1ncc2c1-c1cc(C)ccc1OC2,"1.84 µM [falling, single point]",–
CC(C)N1CCN(S(=O)(=O)c2ccc3ccccc3c2)CC1,"11.2 µM [falling, partial curve]",–
CC(C)(C)OC(=O)NC(Cc1ccccc1)C(=O)N1CCC(C(=O)NCC(=O)Nc2ccc(F)cc2)CC1 (centres undefined),"0.891 µM [falling, full curve]",–
COc1ccc(OC)c(/C=C/C(=O)NCCc2nc3ccccc3[nH]2)c1,"20 µM [falling, partial curve, poor fit]",–
CC(C)CN1C(=O)c2ccc(C(=O)Nc3ccccc3C(=O)O)cc2C1=O,"12.6 µM [falling, partial curve, poor fit]",–
CC(=O)Nc1ccccc1-c1nc2ccc(C(=O)N3CCN(c4cc(C)ccc4C)CC3)cc2[nH]c1=O,"6.51 µM [rising, single point]",–
COc1ccc(NC(=O)c2cccc(S(=O)(=O)NCc3ccco3)c2)c(OC)c1,"1.16 µM [falling, partial curve, poor fit]",–
CC/C(=C\C(=O)c1ccncc1)Nc1ccc(O)cc1,–,"17.8 µM [falling, partial curve, poor fit]"
Cc1ccc(NC(=O)C2C3CCCCC32)cc1[N+](=O)[O-] (centres undefined),"10 µM [rising, partial curve, poor fit]",–
O=C(NC1CCN(C(=S)Nc2ccccc2)CC1)C1CCCCC1,"2.51 µM [rising, partial curve]",–
CCN1C=C(Cc2ccccc2C)C2=C(C1)C(c1ccccc1C)C(C#N)=C(N)O2 (centres undefined),"8.2 µM [falling, partial curve, poor fit]",–
COc1cc([N+](=O)[O-])ccc1-c1ccc(/C=N/NC(N)=O)o1,"7.94 µM [rising, partial curve, poor fit]",–
Cc1nn(-c2ccc(N3CCCCC3)nn2)c(C)c1CCC(=O)Nc1ccc(F)c(F)c1,"28.2 µM [falling, single point]",–
COC(=O)[C@@H]1[C@@H](C#N)C2(c3ccccc3-c3ccccc32)N(c2ccc(Cl)cc2)N1C#N,"3.66 µM [falling, full curve, poor fit]","29.1 µM [falling, partial curve, poor fit]"
COc1ccc(N/N=C(/Oc2ccc([N+](=O)[O-])cc2)C(C)=O)cc1,"20.6 µM [falling, single point]","16.4 µM [rising, partial curve, poor fit]"
